# According to PubChem BioAssay AID504834 (National Center for Advancing Translational Sciences (NCATS), 2011):
# Out of some 320,000 compounds screened, about 22,000 (6.9%) were called active. The shares of active, inactive and inconclusive entries below differ from those in the screen. The call rests on the fitted dose curve; in most records, active means well fitted inhibition curve with a large enough effect; inconclusive means small, poorly fitted or top-dose-only effect, or another doubt; inactive means no such curve, though single readings can be large or run the other way. Potencies beside an inconclusive call are fits to weak or partial responses and may not hold up.
# Assay: Primary qHTS for delayed death inhibitors of the malarial parasite plastid, 96 hour incubation
# Conditions: P. falciparum luciferase reporter growth; series mostly up to 28.7 µM; activity change, negative = inhibition: at the top concentration
# Procedure, shortened: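 Delayed-death screen, second-generation endpoint: infected erythrocytes, 2% hematocrit, 0.05% parasitemia final; 96 hours at 37 C, 5% CO2; luciferase detection reagent; luminescence decrease equals reduced growth.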
# On the % scale 0 is the no-effect control and ±100 the full control effect; potency means the concentration at half of the fitted maximal effect.
SMILES,"activity change, negative = inhibition",Potency
Oc1ccccc1CNc1cnc2ccccc2c1,inactive: 21.8%,–
CN(Cc1ccccc1)C(NC(=O)c1ccco1)C(Cl)(Cl)Cl (stereo not given),–,"inconclusive: 7.38 µM [inhibitor, partial curve]"
CCCn1nnc(NC(=O)c2ccc(-c3ccccc3)cc2)n1,–,"inconclusive: 4.65 µM [inhibitor, full curve, poor fit]"
CC(C)c1ccc(C2(C)NC(=O)N(CC(=O)NC3(C#N)CCCC3)C2=O)cc1 (stereo not given),–,"inconclusive: 14.7 µM [inhibitor, partial curve, poor fit]"
CN(C(=O)c1ccc(NC(=O)Cc2ccc(NC(=O)C3CCCN(C(=O)C4CCCC4)C3)cc2)cc1)C1CC1 (stereo not given),–,active: 11.7 µM
CCOC(=O)C1CCN(C(=O)CCn2c(=O)[nH]c3ccccc3c2=O)CC1,–,"inconclusive: 10.4 µM [inhibitor, single point]"
CC(C)c1ccc(NNC(=O)C2CCC2)cc1,inactive: 10%,–
C[C@@H]1CC[C@@]2(NC1)O[C@H]1C[C@H]3[C@@H]4CC=C5C[C@@H](O)CC[C@]5(C)[C@H]4CC[C@]3(C)[C@H]1[C@@H]2C,–,"inconclusive: 1.85 µM [inhibitor, single point]"
O=C(Nc1cc([N+](=O)[O-])ccc1F)c1cccs1,inactive: 23.3%,–
COc1ccc(OC)c(NC(=O)C2COc3ccccc3O2)c1 (stereo not given),–,"inconclusive: 1.47 µM [inhibitor, partial curve]"
Cc1ccc(-c2nc3ccccc3s2)cc1NC(=S)NC(=O)/C=C/c1ccco1,inactive: 165%,–
O=C(CCCCn1c(=O)[nH]c2ccccc2c1=O)NCCc1c[nH]c2ccccc12,–,"inconclusive: 16.5 µM [inhibitor, single point]"
O=C(NC(=S)Nc1ccc(Cc2ccncc2)cc1)c1ccccc1,–,"inconclusive: 4.15 µM [inhibitor, single point]"
COc1ccc(C(=O)NC2CC2)cc1OC1CCN(Cc2ccc(F)cc2F)CC1,–,"inconclusive: 9.28 µM [inhibitor, single point]"
CC1(C)Oc2ccc(C(=O)N3CCc4ccccc43)cc2N(CC(=O)N2CCCC2)C1=O,–,"inconclusive: 18.5 µM [inhibitor, single point]"
O=C(O)c1ccccc1NS(=O)(=O)c1ccc(NNC(=S)Nc2ccc(OC(F)F)cc2)c([N+](=O)[O-])c1,–,"inconclusive: 0.0029 µM [inhibitor, full curve, poor fit]"
CN1CCN(S(=O)(=O)c2ccc(NC(=O)Cc3ccc([N+](=O)[O-])cc3)cc2)CC1,inactive: 3.97%,–
CN(C(=O)COc1cc(=O)n(C)c2ccccc12)c1ccc(Cl)cc1,–,"inconclusive: 18.5 µM [inhibitor, single point]"
C=CCn1c(COc2ccccc2F)nnc1SCC(=O)Nc1cc2oc3ccccc3c2cc1OC,inactive: 1.53% [at 5.75 µM],–
Cc1cccc(-n2nc(C)c3c2NC2=C(C(=O)CCC2)C3c2ccccn2)c1 (stereo not given),–,"inconclusive: 0.928 µM [inhibitor, full curve, poor fit]"
O=C(NN=C1CCN(Cc2ccccc2)CC1)c1cc2ccccc2cc1O,–,"inconclusive: 18.5 µM [inhibitor, single point]"
O=C(NCc1cccnc1)c1ccc(-c2cc3ccccc3oc2=O)cc1,–,"inconclusive: 0.522 µM [inhibitor, full curve, poor fit]"
CN(Cc1nc(Cc2cccc(C(F)(F)F)c2)no1)C1CC(C)(C)NC(C)(C)C1,–,"inconclusive: 18.5 µM [inhibitor, single point]"
CC(=O)C1=C(C)NC(SCC(N)=O)=C(C#N)C1c1ccco1 (stereo not given),inactive: 21.1%,–

SMILES,"activity change, negative = inhibition",Potency
CCc1ccc(N2CC(C(=O)NCc3ccc4c(c3)OCO4)CC2=O)cc1 (stereo not given),–,"inconclusive: 18.5 µM [inhibitor, single point]"
CCNC(=S)N/N=C(\C)c1ccc2ccccc2c1OC(F)F,–,"inconclusive: 4.65 µM [inhibitor, partial curve, poor fit]"
COc1cccc(CC(=O)Nc2ccc3nc(C)sc3c2)c1,inactive: 30.3%,–
O=C(CCN1C(=O)S/C(=C\c2ccccc2)C1=O)Nc1ccc(O)cc1C(=O)O,–,"inconclusive: 10.4 µM [inhibitor, single point]"
CC(=O)c1sc(Nc2nc3ccc(F)cc3s2)nc1C,–,"inconclusive: 18.5 µM [inhibitor, single point]"
CCOc1ccc(-n2c(=O)c3sccc3n(Cc3ccc(C)cc3)c2=O)cc1,–,"inconclusive: 0.294 µM [inhibitor, full curve, poor fit]"
CCN1CCN(CC(=O)Nc2sc3c(c2C#N)CCC3)CC1,inactive: 8.13%,–
CC(=O)N1c2ccc(S(=O)(=O)N3CCCC3C(=O)Nc3ccc(C)cc3)cc2CC1C (stereo not given),–,"inconclusive: 13.1 µM [inhibitor, partial curve]"
COC(=O)c1c(NC(=O)C(=O)NCC2CCCO2)sc2c1CC(C)(C)OC2 (stereo not given),–,"inconclusive: 9.28 µM [inhibitor, partial curve]"
COc1ccc(S(=O)(=O)N2CCC(N3CCCCC3)CC2)cc1,inactive: 46%,–
CCN(CC)c1ccc(C(=O)NNC(=O)CCc2nc3ccccc3c(=O)[nH]2)cc1,–,"inconclusive: 1.47 µM [inhibitor, full curve, poor fit]"
CCOc1ccccc1NS(=O)(=O)c1c[nH]c(C(=O)OC)c1,–,"inconclusive: 13.1 µM [inhibitor, partial curve, poor fit]"
CN(C)S(=O)(=O)n1cnc([C@H]2c3c(ncn3Cc3ccccc3)C[C@H]3COC(=O)[C@@H]32)c1,–,"inconclusive: 14.7 µM [inhibitor, single point]"
Cc1cc(S(=O)(=O)N2CCN(CC(=O)NCCc3cccs3)CC2)ccc1Br,–,"inconclusive: 4.15 µM [inhibitor, single point]"
O=C(NCc1ccccc1)C12CC3CC(CC(Br)(C3)C1)C2,inactive: 12.5%,–
CCS(=O)(=O)c1nc(S(=O)(=O)c2ccc(C)cc2)c(NCc2ccccn2)s1,inactive: -33.5%,–
Cc1ccc(NC(=O)CSc2nc3ccccc3c(=O)n2CC2CCCO2)cc1 (stereo not given),–,"inconclusive: 13.1 µM [inhibitor, single point]"
COc1ccc([C@H]2CC(=O)C=C(c3ccc(F)cc3OCc3ccccc3)C2)cc1,inactive: -21.2%,–
COc1cc2c(cc1O)CC[n+]1cc3c(OC)c(OC)ccc3cc1-2,–,active: 0.117 µM
O=C(Nc1ccc(S(=O)(=O)N2CCCC2)cc1)c1ccc(OCC2CCCO2)cc1 (stereo not given),–,"inconclusive: 7.38 µM [inhibitor, partial curve]"
Cc1ccc(C(=O)CSc2ncnc3sc4c(c23)CCC(C)C4)cc1 (stereo not given),inactive: 87.7%,–
Cn1c(=O)cc(NCc2ccccc2)[nH]c1=O,–,"inconclusive: 18.5 µM [inhibitor, single point]"
O=C(CNc1cccc(Cl)c1)NNC(=S)NCc1ccccc1,inactive: 31.1%,–
O=C(O)c1ccc(Cl)c(NCc2cccs2)c1,inactive: -24.8%,–

# 3 of these compounds in a different format.
SMILES	activity change, negative = inhibition	Potency
CCNC(=S)N/N=C(\C)c1ccc2ccccc2c1OC(F)F	–	inconclusive: 4.65 µM [inhibitor, partial curve, poor fit]
O=C(NCc1ccccc1)C12CC3CC(CC(Br)(C3)C1)C2	inactive: 12.5%	–
CCS(=O)(=O)c1nc(S(=O)(=O)c2ccc(C)cc2)c(NCc2ccccn2)s1	inactive: -33.5%	–

# Next part

SMILES,"activity change, negative = inhibition",Potency
COc1ccc(NC(=O)CCc2ccccc2)cc1NC(=O)c1ccco1,–,"inconclusive: 14.7 µM [inhibitor, single point]"
CCOc1ccc(C(=O)NCC(=O)N2CC=C(c3ccccc3)CC2)cc1OCC,–,"inconclusive: 2.94 µM [inhibitor, partial curve]"
Cc1ccc(-c2cc3onc(-c4ccccc4)c3c(=O)n2C)cc1,inactive: 15.6%,–
CN(CC(=O)Nc1ccccc1C(F)(F)F)C(=O)c1ccccc1Sc1ccccc1C#N,–,"inconclusive: 18.5 µM [inhibitor, single point]"
COc1ccc(CCn2ccc(O)c(Cc3ccc(Cl)cc3)c2=O)cc1OC,–,"inconclusive: 9.28 µM [inhibitor, partial curve]"
Cn1c(=O)c2ncn(CC(=O)O)c2n(C)c1=O,inactive: 7.63%,–
COc1ccc(NC(=O)CCN2C(=O)C3CC=C(Cl)CC3C2=O)cc1 (stereo not given),inactive: 17.7%,–
CN(Cc1ccccc1)S(=O)(=O)c1ccccc1[N+](=O)[O-],–,"inconclusive: 1.85 µM [inhibitor, partial curve, poor fit]"
COc1cccc2cc(C(=O)NCCc3ccccc3)oc12,inactive: 32.3%,–
O=C(Cc1cccs1)N/N=C/C=C\c1ccccc1[N+](=O)[O-],–,"inconclusive: 11.7 µM [inhibitor, partial curve, poor fit]"
O=C1c2ccccc2-c2onc3ccc(Oc4ccccc4)c1c23,inactive: 37.4%,–
Cc1ccccc1-c1nnc(SCC#N)o1,inactive: 2.44%,–
N#C/C(C(=O)NCc1ccccc1)=C1/SC(Cc2ccc(Cl)cc2)C(=O)N1c1ccccc1 (stereo not given),–,"inconclusive: 11.7 µM [inhibitor, single point]"
Cc1nn(CC(=O)Nc2ccccn2)c(=O)c2ccccc12,inactive: 3.59%,–
CN(C)c1ccc(/C=C/c2nc3ccccc3c(=O)n2-c2ccc(C(=O)O)cc2)cc1,–,"inconclusive: 1.31 µM [inhibitor, full curve]"
CCCN1C(=O)NC2(O)C(=O)c3ccccc3C12O (stereo not given),–,"inconclusive: 18.5 µM [inhibitor, single point]"
O=C1/C(=C/c2cccnc2)SC(=S)N1CCc1ccccc1,inactive: -9.48%,–
CC1(C)CC(=O)C/C(=N/NC(=O)COc2ccc3ccccc3c2Br)C1,–,"inconclusive: 11.7 µM [inhibitor, partial curve, poor fit]"
Cc1cc(NCCCn2ccnc2)n2nc(-c3ccc(Cl)cc3)cc2n1,inactive: 20%,–
Cc1ccc(S(=O)(=O)N(C)c2ccc(OC(C)C(=O)N(C)c3ccccc3)cc2)cc1 (stereo not given),–,"inconclusive: 14.7 µM [inhibitor, partial curve, poor fit]"
COc1ccccc1/C=C/CN1CCCC(CO)(CCc2ccccc2)C1 (stereo not given),–,"inconclusive: 11.7 µM [inhibitor, single point]"
Cc1c(C(=O)Nc2ccc(S(=O)(=O)Nc3ncccn3)cc2)oc2ccccc12,inactive: 8.11%,–
